Results are given in words; binding and its absence hold for the method and conditions named. In cells and extracts the contact can be indirect. Here binding means that the protein was enriched with, or labelled near, the bait; the list need not be complete.
Target: recombinant SARS-CoV-2 envelope (E) protein, His-tagged (SARS-CoV-2) (UniProt P0DTC4)
Assay: affinity purification with mass spectrometry; only the target purified

Amino acid sequences for entries named in this document (tags omitted).
UniProt P0DTC4: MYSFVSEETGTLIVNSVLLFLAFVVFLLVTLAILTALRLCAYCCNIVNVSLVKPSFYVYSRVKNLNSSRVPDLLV
UniProt P16671: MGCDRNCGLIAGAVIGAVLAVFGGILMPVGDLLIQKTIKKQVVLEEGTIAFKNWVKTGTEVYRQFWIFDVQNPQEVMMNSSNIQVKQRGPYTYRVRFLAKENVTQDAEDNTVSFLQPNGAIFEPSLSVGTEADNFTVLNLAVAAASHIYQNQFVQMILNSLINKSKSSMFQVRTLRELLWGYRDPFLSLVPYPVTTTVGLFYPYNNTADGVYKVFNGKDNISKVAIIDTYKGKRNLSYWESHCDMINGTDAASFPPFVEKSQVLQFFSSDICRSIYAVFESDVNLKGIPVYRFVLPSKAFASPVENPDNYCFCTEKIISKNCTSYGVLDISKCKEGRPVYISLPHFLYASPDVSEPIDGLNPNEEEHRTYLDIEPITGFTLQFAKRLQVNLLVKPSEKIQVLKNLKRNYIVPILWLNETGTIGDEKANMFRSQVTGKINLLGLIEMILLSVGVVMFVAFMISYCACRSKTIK

For “CD36 of human platelets (from UniProt P16671 1-472) (receptor)”, which binding is on record?
The binding was “binds”.

Source: PMC10442425
